Experimental data reported in patent US20220024882A1, “NOVEL TUMOR ANTIGEN BINDING AGENTS AND USES THEREOF” (ITM Isotopen Technologien München AG, priority 2018, published 2022).
Some entries share one result that the patent states for a list of compounds.

Each compound was assayed on human plasma (assay: Plasma protein binding, ultrafiltration assay). Conditions: incubated in human plasma, room temperature.
Assay type: in vitro ADME
Method: In short, the PSMA-ligands were labeled with ^177Lu at a specific activity of 50 MBq/nmol and incubated in human plasma samples or PBS at room temperature. The free and plasma-bound fractions were separated using a centrifree ultrafiltration device (4104 centrifugal filter units; Millipore, 30000 Da nominal molecular weight limit, methylcellulose micropartition membranes). The incubated solution was loaded to the ultrafiltration device and centrifuged at 2500 rpm for 40 min at 20° C. Samples from the filtrate were taken and analyzed for radioactivity in a γ-counter. The amount of plasma-bound radioligand was calculated as the fraction of radioactivity measured in the […] relative to the corresponding loading solution (set to 100%). The experiments were performed at least 3 times for each radioligand.
Plasma protein-binding properties of ^177Lu-Ibu-sPSMA were determined using an ultrafiltration assay according to Benesova, M. et al. (Mol Pharm 2018, 15, (3), 934-946). In short, the Ibu-sPSMA-ligand was labeled with ^177Lu at a molar activity of 50 MBq/nmol and incubated in human plasma samples or PBS at 37° C. The free and plasma-bound fraction were separated using a centrifree ultrafiltration device (4104 centrifugal filter units; Millipore, 30000 Da nominal molecular weight limit, methylcellulose micropartition membranes). The incubated solution was loaded to the ultrafiltration device and centrifuged at 2000 rpm for 40 min at 20° C. Samples from the filtrate were taken and analyzed for radioactivity in a γ-counter. The amount of plasma-bound radioligand was calculated as the fraction of radioactivity measured in the […] relative to the corresponding loading solution (set to 100%). The experiments were performed in triplicates.
For `CC(C)Cc1ccc(C(C)C(=O)NC(CCN)C(=O)NCCCCC(NC(=O)CN2CCN(CC(=O)O)CCN(CC(=O)O)CCN(CC(=O)O)CC2)C(=O)NCC2CCC(C(=O)NC(Cc3ccc4ccccc4c3)C(=O)NCCCCC(NC(=O)NC(CCC(=O)O)C(=O)O)C(=O)O)CC2)cc1` (centres unmarked) [^177Lu-Ibu-DAB-PSMA, metal not drawn], the “fraction of radioligand that penetrated the filter membrane” value (“fraction” for short) was less than 11%.
`CC(C)Cc1ccc(C(C)C(=O)NC(CC(=O)O)C(=O)NCCCCC(NC(=O)CN2CCN(CC(=O)O)CCN(CC(=O)O)CCN(CC(=O)O)CC2)C(=O)NCC2CCC(C(=O)NC(Cc3ccc4ccccc4c3)C(=O)NCCCCC(NC(=O)NC(CCC(=O)O)C(=O)O)C(=O)O)CC2)cc1` (centres unmarked) [^177Lu-Ibu-Dα-PSMA, metal not drawn] was tested, and the “fraction” value was less than 11%.
`CC(C)Cc1ccc(C(C)C(=O)NC(CC(=O)NCCCCC(NC(=O)CN2CCN(CC(=O)O)CCN(CC(=O)O)CCN(CC(=O)O)CC2)C(=O)NCC2CCC(C(=O)NC(Cc3ccc4ccccc4c3)C(=O)NCCCCC(NC(=O)NC(CCC(=O)O)C(=O)O)C(=O)O)CC2)C(=O)O)cc1` (centres unmarked) [^177Lu-Ibu-Dβ-PSMA, metal not drawn] was tested, and the “fraction” value was less than 11%.
With `CC(C)Cc1ccc(C(C)C(=O)NC(CC(N)=O)C(=O)NCCCCC(NC(=O)CN2CCN(CC(=O)O)CCN(CC(=O)O)CCN(CC(=O)O)CC2)C(=O)NCC2CCC(C(=O)NC(Cc3ccc4ccccc4c3)C(=O)NCCCCC(NC(=O)NC(CCC(=O)O)C(=O)O)C(=O)O)CC2)cc1` (centres unmarked) [^177Lu-Ibu-N-PSMA, metal not drawn] the “fraction” value was less than 11%.
With `CC(C)Cc1ccc(C(C)C(=O)NCCCCC(NC(=O)CN2CCN(CC(=O)O)CCN(CC(=O)O)CCN(CC(=O)O)CC2)C(=O)NCC2CCC(C(=O)NC(Cc3ccc4ccccc4c3)C(=O)NCCCCC(NC(=O)NC(CCC(=O)O)C(=O)O)C(=O)O)CC2)cc1` (centres unmarked) [^177Lu-Ibu-PSMA, metal not drawn] the “fraction” value was less than 11%.
